In publication PMC5730566:
Results are given in words; binding and its absence hold for the method and conditions named. Some results given as binding are weak or reduced against the parent protein; the word gives no strength.

Target: Scavenger receptor class F, member 1 (SCARF-1) (human (endogenous in liver tissue and HSEC)) (UniProt Q14162)
Experiment: Western blot after SDS-PAGE; 20 ug lysate of liver tissue or cultured HSEC on 10% SDS-PAGE, blotted with anti-SCARF-1 (Abcam ab92308); ~90 kDa species called monomer, ~180 kDa species called dimer

B1: Scavenger receptor class F, member 1 (SCARF-1) (receptor, UniProt Q14162 20-830)
chain: SELDPKGQHVCVASSPSAELQCCAGWRQKDQECTIPICEGPDACQKDEVCVKPGLCRCKPGFFGAHCSSRCPGQYWGPDCRESCPCHPHGQCEPATGACQCQADRWGARCEFPCACGPHGRCDPATGVCHCEPGWWSSTCRRPCQCNTAAARCEQATGACVCKPGWWGRRCSFRCNCHGSPCEQDSGRCACRPGWWGPECQQQCECVRGRCSAASGECTCPPGFRGARCELPCPAGSHGVQCAHSCGRCKHNEPCSPDTGSCESCEPGWNGTQCQQPCLPGTFGESCEQQCPHCRHGEACEPDTGHCQRCDPGWLGPRCEDPCPTGTFGEDCGSTCPTCVQGSCDTVTGDCVCSAGYWGPSCNASCPAGFHGNNCSVPCECPEGLCHPVSGSCQPGSGSRDTALIAGSLVPLLLLFLGLACCACCCWAPRSDLKDRPARDGATVSRMKLQVWGTLTSLGSTLPCRSLSSHKLPWVTVSHHDPEVPFNHSFIEPPSAGWATDDSFSSDPESGEADEVPAYCVPPQEGMVPVAQAGSSEASLAAGAFPPPEDASTPFAIPRTSSLARAKRPSVSFAEGTKFAPQSRRSSGELSSPLRKPKRLSRGAQSGPEGREAEESTGPEEAEAPESFPAAASPGDSATGHRRPPLGGRTVAEHVEAIEGSVQESSGPVTTIYMLAGKPRGSEGPVRSVFRHFGSFQKGQAEAKVKRAIPKPPRQALNRKKGSPGLASGSVGQSPNSAPKAGLPGATGPMAVRPEEAVRGLGAGTESSRRAQEPVSGCGSPEQDPQKQAEEERQEEPEYENVVPISRPPEP
B1 was tested, and the binding was “binds”.
